Experiments:
[1] = Fog and relative sensitivity of coated film samples, Processings A and E; settings: for Fog: precursor 1 × 10^-5 to 5 × 10^-5 molar ratio to silver halide; for Relative Sensitivity: standard point fog + 0.2, sample No. 16 set at 100
Description: (§1) On a cellulose triacetate film support having thereon a subbing layer was coated the layers described below in the order listed, to which emulsion layer an emulsified dispersion prepared by dissolving one of the antifoggant precursors set forth in Table 3 and Magenta Coupler (C-1) in a mixture of tricresyl phosphate and ethyl acetate and then dispersing the resulting solution into a gelatin aqueous solution was added, to prepare Samples 1 to 15. The coverage of each component is shown in parentheses in terms of g/m^2 or mol/m^2.
(§2) (1) Emulsion layer containing a silver iodobromide negative emulsion (grain size: 1.5μ, silver: 1.6×10^-2 mol/m^2), Magenta Coupler (C-1) (1.33×10^-3 mol/m^2), tricresyl phosphate (0.95 g/m^2) and gelatin (2.5 g/m^2).
(§3) (2) Protective layer containing the sodium salt of 2,4-dichloro-6-hydroxy-s-triazine (0.05 g/m^2) and gelatin (1.30 g/m^2).
(§4) These films were allowed to stand for 14 hours at a temperature of 40° C. and a relative humidity of 70% and thereafter subjected to sensitometric exposure using white light and, subsequently, to the color development processing (Processing A) described below. The densities of the processed samples were measured using green light to obtain data concerning photographic properties.
Coated Samples 16 to 28, each of which contained an antifoggant or a precursor of the antifoggant, were prepared in the same manner as in Example 3. Each of these films was exposed in the same manner as in Example 3 and, subsequently, to color development processing (Processing E) wherein a color developing solution prepared by adding 4.0 g of hydroxylamine sulfate to a 1 liter portion of the color developing solution used in Processing A of Example 3 was used.
**Relative sensitivity: Standard point of the optical density to determin
the sensitivity was fog + 0.2,and the standard sensitivity of antifoggant
precursor absent sample (No. 16) was set at 100.

[2] = Maximum density of color developed in coated film samples with antifoggant precursor, Processings A to D; settings: precursor 5 × 10^-3 molar ratio to silver halide
Description: as §1, §2, §3, §4
The processing solutions used in the abovedescribed steps respectively had the following compositions.
The same processings as Processing A were also used except that color developing solutions prepared by adding 12 g of hydroxylamine sulfate (VI)-(2), 1 g of bis(methoxyethyl)hydroxylamine (VI)-(5) and 6 g of methylhydroxylamine hydrochloride (VI)-(3), respectively, to a 1 liter portion of the color developing solution of Processing A were used. These processings are designated Processing B, Processing C and Processing D, respectively.
The maximum densities of colors developed in each of the above-described Processings A, B, C and D in Samples 1 to 15 are shown in Table 3 below.

[3] = Processing A (hydroxylamine absent)
[4] = Processing E (4.0 g/l hydroxylamine sulfate)
[5] = Processing B (12 g/l hydroxylamine sulfate (VI)-(2))
[6] = Processing C (1 g/l bis(methoxyethyl)hydroxylamine (VI)-(5))
[7] = Processing D (6 g/l methylhydroxylamine hydrochloride (VI)-(3))

Structure (SMILES) | Fog [1, 3] | Relative Sensitivity ([1]; Processing A) | Fog [1, 4] | Relative Sensitivity ([1]; Processing E) | maximum density of color developed [2, 3] | maximum density of color developed [2, 5] | maximum density of color developed [2, 6] | maximum density of color developed [2, 7]
CNC(=O)Nc1cccc(-n2nnnc2SCN2C(=O)c3ccccc3S2(=O)=O)c1 [(I)-(16)] | 0.14 | 100 | 0.08 | 89 | 1.35 | 0.83 | 0.92 | 1.06
CN1C(=O)c2cccc(N(C)C(=O)n3nnc4cc(Cl)c(Cl)cc43)c2C1=O [(IV)-(1)] | 0.14 | 100 | 0.08 | 90 | 1.40 | 0.82 | 0.91 | 1.02
O=C1c2ccccc2S(=O)(=O)N1CSc1nnnn1-c1ccccc1 [(I)-(15)] | 0.14 | 100 | 0.09 | 92 | 1.43 | 0.94 | 0.93 | 1.11
O=C1CCCC(=O)N1CSc1nnnn1-c1ccccc1 [Compound (II)-(2), N-(1-phenyl-1-tetrazolylthiomethyl)glutarimide] | 0.14 | 100 | 0.10 | 92 |  |  |  | 
NS(=O)(=O)c1cccc(-n2nnnc2SCN2C(=O)c3ccccc3C2=O)c1 [(I)-(4)] | 0.14 | 99 | 0.08 | 91 |  |  |  | 
CN(C(=O)Sc1nnnn1-c1ccccc1)c1cccc2c1COC2=O [(V)-(1)] |  |  |  |  | 1.41 | 0.85 | 0.93 | 1.03
O=C1CCC(=O)N1CSc1nnnn1-c1ccccc1 [(II)-(1)] |  |  |  |  | 1.41 | 0.80 | 0.97 | 1.05
O=C1OC(Sc2nnnn2-c2ccccc2)c2ccc([N+](=O)[O-])cc21 (stereo not shown) [(III)-(3)] |  |  |  |  | 1.41 | 0.89 | 0.89 | 1.01
O=C1CC(Sc2nnnn2-c2ccccc2)C(=O)N1c1ccccc1 (stereo not shown) [Compound B-2, reference compound] | 0.14 | 98 | 0.13 | 89 | 1.39 | 1.25 | 1.08 | 1.27
Oc1ccc(CSc2nnnn2-c2ccccc2)cc1 [Compound B-3, reference compound] |  |  |  |  | 0.88 | 0.86 | 0.87 | 0.88
CNC(=O)Nc1cccc(-n2nnnc2SCN2C(=O)OC(C)(C)C2=O)c1 [(II)-(9)] |  |  |  |  | 1.40 | 0.75 | 0.96 | 1.03
O=C1OC(Sc2nnnn2-c2ccccc2)c2ccccc21 (stereo not shown) [(III)-(1)] | 0.13 | 98 | 0.08 | 89 |  |  |  | 
N#CCCSc1nnnn1-c1ccccc1 [Compound B-1, reference compound] | 0.14 | 100 | 0.13 | 89 | 1.38 | 1.22 | 1.07 | 1.22
Cc1ccc(S(=O)(=O)Nc2ccc3c(c2)C(=O)N(CSc2nnnn2-c2ccccc2)C3=O)cc1 [Compound (I)-(11), N-(1-phenyl-5-tetrazolylthiomethyl)-4-(p-toluenesulfonamido)phthalimide] |  |  |  |  | 1.40 | 0.84 | 0.96 | 1.08

Reference: patent US4629683A, “Processing silver halide photographic material with blocked agent and hydroxylamine” (Fuji Photo Film Co., Ltd., priority 1983, dated 1986)
